Source: PubChem BioAssay AID1259254 (NCATS, 2017)
Screen: 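Gene knock-downs that lead to re-replication, shown by excess G2 DNA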 (primary screen). Cells: human HCT116 colorectal cancer cells. Reagent: single siRNA against human genes. Timing: 3 days. Measurement: 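Nuclei stained with Hoechst and imaged; cell-cycle phase assigned by DNA content; G2 share scaled per plate, non-targeting siRNA 0%, GMNN siRNA 100%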. Reading the numbers: G2 robust z-score and G2 cells, % of GMNN control: higher = more G2 cells, more excess DNA replication; raw share of cells in G2: higher = larger share of cells with G2 DNA content. Rule for the call: 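Active siRNAs have a G2 robust z of 5 or more median absolute deviations over the median, which in these data means about 38% or higher of GMNN control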.
The whole screen tested about 59,000 reagents; shown is an unselected part. About 1,550 of all reagents (2.6%) were called active. 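G2 share is only a proxy for re-replication; each gene was hit by three separate siRNAs, and active genes were retested.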 The raw values are shown without normalisation. Unmarked entries are inactive. The numbers tell different reagents against one gene apart. The record does not give: the amount of reagent.

| Gene | reagent no. | G2 robust z-score | G2 cells, % of GMNN control | raw share of cells in G2 (%) |
| --- | --- | --- | --- | --- |
| EID1 | 1 | 0.0118 | 3.05 | 5.56 |
| EID1 | 2 | 1.46 | 13.2 | 9.66 |
| EID1 | 3 | -0.244 | 1.25 | 3.73 |
| PLXNA3 | 1 | 1.62 | 14.4 | 10.4 |
| PLXNA3 | 2 | 0.459 | 6.2 | 7.52 |
| PLXNA3 | 3 | 0.202 | 4.39 | 5.09 |
| GABPB1 | 1 | -0.368 | 0.375 | 3.61 |
| GABPB1 | 2 | 0.345 | 5.39 | 7.37 |
| GABPB1 | 3 | 0.109 | 3.73 | 4.46 |
| CDC42SE1 | 1 | -0.25 | 1.21 | 4.82 |
| CDC42SE1 | 2 | -0.122 | 2.11 | 5.47 |
| CDC42SE1 | 3 | -0.453 | -0.222 | 2.96 |
| AFG2B | 1 | -0.833 | -2.89 | 4.45 |
| AFG2B | 2 | 4.43 | 34.2 | 16.6 |
| AFG2B | 3 | -0.563 | -0.993 | 4 |

Taken from above.
EID1 #3, G2 cells, % of GMNN control = 1.25
GABPB1 #3, raw share of cells in G2 (%): 4.46
Result of CDC42SE1 #3 in “G2 robust z-score”: -0.453

The list goes on:
| Gene | reagent no. | G2 robust z-score | G2 cells, % of GMNN control | raw share of cells in G2 (%) |
| --- | --- | --- | --- | --- |
| GIMAP4 | 1 | 1.94 | 16.7 | 10.9 |
| GIMAP4 | 2 | 2.96 | 23.8 | 14 |
| GIMAP4 | 3 | -0.758 | -2.37 | 2.38 |
| CEP162 | 1 | 1.56 | 14 | 10.5 |
| CEP162 | 2 | -0.688 | -1.87 | 3.36 |
| CEP162 | 3 | -0.77 | -2.45 | 2.26 |
| RPL6P16 | 1 | -0.767 | -2.43 | 2.62 |
| RPL6P16 | 2 | -0.721 | -2.1 | 2.13 |
| RPL6P16 | 3 | -0.773 | -2.47 | 2.67 |
| LYRM7 | 1 | 0.0427 | 3.27 | 5.47 |
| LYRM7 | 2 | -0.213 | 1.47 | 3.46 |
| LYRM7 | 3 | -0.654 | -1.64 | 2.41 |
| USP47 | 1 | -0.106 | 2.22 | 6.33 |
| USP47 | 2 | 0.588 | 7.1 | 7.42 |
| USP47 | 3 | -0.849 | -3.01 | 2.79 |
